These are yes or no findings as the source states them, for the method shown. Binding seen in cells or lysates may run through a third protein. Some entries that bind do so weakly or less than the wild type.

The chains behind the UniProt entries cited, without tags or fusion partners. Residues count along the entry.
UniProt Q9NQS3, residues 58-549: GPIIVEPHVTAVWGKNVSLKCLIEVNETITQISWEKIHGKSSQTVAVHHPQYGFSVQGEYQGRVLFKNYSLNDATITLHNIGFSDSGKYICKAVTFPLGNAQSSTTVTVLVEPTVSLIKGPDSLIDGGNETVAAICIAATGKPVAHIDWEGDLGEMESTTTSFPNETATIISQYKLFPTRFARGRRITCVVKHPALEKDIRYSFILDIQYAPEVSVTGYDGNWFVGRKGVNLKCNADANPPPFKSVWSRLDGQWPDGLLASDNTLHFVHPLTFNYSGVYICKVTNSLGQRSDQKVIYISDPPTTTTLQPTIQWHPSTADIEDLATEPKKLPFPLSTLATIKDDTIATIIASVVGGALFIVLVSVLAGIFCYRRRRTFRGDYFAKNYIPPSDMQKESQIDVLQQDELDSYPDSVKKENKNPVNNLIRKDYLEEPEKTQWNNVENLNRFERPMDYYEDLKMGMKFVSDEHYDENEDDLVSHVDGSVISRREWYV
UniProt P78310, residues 20-365: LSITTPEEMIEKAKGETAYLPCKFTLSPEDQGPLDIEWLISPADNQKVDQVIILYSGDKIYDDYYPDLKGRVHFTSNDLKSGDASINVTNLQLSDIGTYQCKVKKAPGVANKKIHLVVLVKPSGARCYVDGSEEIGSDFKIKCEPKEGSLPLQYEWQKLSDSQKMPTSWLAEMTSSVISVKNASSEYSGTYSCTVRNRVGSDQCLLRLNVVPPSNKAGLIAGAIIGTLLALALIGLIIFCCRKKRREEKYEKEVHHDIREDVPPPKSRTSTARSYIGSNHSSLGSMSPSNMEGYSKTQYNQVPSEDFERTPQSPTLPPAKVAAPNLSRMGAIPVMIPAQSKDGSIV
UniProt P15311: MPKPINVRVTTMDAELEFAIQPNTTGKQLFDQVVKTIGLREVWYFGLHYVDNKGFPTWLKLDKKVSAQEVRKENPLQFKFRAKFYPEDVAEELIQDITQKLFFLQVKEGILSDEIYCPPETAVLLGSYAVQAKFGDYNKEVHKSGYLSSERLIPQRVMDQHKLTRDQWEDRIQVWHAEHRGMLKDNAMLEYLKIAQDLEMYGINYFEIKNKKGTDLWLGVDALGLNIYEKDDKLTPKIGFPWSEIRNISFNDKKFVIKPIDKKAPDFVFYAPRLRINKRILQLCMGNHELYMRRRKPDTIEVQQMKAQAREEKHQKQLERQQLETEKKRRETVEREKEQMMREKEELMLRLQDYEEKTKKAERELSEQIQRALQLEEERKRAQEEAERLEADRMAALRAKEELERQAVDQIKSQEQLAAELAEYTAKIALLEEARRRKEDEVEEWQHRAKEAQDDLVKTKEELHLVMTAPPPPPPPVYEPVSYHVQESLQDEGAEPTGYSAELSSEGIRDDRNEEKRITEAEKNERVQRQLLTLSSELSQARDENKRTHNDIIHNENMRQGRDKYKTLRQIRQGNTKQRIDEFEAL
UniProt Q13464: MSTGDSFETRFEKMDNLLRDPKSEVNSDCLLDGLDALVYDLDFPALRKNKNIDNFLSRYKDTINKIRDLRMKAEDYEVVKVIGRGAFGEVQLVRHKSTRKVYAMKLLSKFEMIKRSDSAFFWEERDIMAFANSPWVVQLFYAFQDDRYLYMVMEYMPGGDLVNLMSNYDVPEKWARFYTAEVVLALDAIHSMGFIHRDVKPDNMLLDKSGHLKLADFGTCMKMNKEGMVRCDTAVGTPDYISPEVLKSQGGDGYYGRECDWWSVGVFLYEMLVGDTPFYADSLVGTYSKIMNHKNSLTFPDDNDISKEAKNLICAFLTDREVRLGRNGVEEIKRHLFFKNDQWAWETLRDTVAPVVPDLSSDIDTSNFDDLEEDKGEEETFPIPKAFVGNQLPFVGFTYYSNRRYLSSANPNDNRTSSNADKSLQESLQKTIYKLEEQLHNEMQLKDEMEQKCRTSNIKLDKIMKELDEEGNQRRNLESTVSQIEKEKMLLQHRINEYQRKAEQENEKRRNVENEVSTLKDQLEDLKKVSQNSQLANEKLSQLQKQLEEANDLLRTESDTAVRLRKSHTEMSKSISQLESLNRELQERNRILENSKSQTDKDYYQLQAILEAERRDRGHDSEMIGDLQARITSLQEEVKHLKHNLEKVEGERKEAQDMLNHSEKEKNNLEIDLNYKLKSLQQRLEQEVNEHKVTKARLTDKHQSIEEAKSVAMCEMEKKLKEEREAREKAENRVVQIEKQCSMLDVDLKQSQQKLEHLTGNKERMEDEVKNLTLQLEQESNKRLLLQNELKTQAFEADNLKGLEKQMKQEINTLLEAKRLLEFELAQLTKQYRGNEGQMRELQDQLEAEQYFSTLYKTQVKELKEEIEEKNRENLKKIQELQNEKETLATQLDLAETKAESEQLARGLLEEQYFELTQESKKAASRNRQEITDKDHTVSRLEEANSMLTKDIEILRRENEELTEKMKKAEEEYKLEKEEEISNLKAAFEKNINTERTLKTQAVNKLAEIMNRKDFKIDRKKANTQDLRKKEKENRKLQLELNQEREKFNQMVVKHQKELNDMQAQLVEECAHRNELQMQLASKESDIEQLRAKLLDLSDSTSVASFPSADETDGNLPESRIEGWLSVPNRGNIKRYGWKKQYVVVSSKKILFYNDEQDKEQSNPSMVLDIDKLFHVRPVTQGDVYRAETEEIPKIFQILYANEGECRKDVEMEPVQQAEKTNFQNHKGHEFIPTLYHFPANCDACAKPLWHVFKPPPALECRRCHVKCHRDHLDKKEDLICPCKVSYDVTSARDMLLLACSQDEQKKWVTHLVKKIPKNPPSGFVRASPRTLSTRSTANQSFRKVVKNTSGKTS
UniProt Q07157: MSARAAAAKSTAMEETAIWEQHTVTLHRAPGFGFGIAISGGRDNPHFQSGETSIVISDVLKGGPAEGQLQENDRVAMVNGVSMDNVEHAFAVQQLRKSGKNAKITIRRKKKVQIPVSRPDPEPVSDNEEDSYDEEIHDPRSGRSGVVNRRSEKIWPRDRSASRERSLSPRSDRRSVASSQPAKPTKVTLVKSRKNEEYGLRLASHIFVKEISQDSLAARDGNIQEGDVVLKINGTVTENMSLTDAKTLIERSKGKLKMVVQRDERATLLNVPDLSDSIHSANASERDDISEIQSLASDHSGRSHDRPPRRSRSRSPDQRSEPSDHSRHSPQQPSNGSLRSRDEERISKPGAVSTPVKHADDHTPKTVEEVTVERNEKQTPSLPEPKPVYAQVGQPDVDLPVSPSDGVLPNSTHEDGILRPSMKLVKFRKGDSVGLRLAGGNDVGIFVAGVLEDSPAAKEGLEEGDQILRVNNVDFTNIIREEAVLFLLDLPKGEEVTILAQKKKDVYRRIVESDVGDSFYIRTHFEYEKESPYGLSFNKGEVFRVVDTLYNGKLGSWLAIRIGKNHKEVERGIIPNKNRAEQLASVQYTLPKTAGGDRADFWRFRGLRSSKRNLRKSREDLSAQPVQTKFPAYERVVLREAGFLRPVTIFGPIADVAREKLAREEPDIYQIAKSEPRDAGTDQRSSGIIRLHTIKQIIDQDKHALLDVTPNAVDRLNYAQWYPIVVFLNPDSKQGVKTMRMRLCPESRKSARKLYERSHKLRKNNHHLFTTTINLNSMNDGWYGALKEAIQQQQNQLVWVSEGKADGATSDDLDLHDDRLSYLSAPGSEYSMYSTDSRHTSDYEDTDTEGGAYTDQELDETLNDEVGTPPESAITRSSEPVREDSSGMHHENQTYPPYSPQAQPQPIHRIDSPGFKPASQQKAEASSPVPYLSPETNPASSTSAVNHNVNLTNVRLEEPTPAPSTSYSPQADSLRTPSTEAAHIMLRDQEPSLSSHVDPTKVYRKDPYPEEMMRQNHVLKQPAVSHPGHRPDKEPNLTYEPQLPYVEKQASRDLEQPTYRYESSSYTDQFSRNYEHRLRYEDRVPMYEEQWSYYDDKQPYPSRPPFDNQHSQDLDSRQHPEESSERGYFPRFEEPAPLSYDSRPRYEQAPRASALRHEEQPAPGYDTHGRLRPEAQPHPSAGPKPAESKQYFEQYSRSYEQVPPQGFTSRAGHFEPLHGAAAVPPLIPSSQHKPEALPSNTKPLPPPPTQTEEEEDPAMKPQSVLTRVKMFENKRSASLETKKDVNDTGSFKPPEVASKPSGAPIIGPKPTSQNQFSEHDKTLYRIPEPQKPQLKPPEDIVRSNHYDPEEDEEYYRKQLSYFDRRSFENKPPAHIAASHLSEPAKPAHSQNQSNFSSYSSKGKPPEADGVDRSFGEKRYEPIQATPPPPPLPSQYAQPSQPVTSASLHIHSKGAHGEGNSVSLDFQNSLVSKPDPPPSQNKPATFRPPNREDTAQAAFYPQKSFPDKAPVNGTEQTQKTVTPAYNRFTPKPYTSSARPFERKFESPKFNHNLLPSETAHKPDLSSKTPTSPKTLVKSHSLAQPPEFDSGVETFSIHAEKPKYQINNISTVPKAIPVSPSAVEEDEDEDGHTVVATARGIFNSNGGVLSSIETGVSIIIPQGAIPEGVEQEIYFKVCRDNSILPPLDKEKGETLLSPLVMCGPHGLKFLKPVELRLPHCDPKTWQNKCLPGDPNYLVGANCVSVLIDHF
UniProt P35222: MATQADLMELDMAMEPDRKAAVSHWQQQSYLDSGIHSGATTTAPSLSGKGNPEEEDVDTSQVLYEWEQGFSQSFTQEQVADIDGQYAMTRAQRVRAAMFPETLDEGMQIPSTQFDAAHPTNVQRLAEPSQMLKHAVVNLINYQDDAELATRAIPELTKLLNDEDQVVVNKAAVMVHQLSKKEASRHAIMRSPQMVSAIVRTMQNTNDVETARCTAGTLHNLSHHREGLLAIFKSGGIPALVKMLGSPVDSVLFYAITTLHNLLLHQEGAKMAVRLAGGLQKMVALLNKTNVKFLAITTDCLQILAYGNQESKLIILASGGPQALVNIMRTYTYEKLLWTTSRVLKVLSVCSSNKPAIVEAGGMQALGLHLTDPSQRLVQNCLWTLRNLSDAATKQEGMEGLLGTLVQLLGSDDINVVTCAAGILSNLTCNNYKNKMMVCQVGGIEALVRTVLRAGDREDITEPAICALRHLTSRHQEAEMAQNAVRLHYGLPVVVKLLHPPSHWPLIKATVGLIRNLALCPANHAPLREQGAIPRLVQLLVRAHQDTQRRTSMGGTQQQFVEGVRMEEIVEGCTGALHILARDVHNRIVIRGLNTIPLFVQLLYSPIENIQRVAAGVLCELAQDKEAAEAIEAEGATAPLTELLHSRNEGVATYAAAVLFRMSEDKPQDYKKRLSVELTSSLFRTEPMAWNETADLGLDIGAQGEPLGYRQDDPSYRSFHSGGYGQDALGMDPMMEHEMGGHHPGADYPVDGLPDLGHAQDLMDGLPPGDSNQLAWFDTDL
UniProt P26038: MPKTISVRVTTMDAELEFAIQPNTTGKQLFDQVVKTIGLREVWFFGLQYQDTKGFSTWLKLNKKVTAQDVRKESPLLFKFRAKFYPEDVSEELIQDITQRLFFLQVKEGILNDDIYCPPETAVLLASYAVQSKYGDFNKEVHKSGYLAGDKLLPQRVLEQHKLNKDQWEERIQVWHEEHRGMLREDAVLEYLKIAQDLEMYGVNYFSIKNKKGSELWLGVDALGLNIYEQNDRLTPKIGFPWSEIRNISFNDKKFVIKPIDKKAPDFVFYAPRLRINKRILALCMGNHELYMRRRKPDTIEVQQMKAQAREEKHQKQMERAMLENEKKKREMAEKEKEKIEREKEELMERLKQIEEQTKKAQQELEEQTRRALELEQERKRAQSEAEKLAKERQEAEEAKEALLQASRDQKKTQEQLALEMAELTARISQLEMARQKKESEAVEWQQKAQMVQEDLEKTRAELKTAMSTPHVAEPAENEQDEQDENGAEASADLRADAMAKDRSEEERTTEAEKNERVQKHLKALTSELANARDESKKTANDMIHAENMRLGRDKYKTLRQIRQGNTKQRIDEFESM
UniProt P35241: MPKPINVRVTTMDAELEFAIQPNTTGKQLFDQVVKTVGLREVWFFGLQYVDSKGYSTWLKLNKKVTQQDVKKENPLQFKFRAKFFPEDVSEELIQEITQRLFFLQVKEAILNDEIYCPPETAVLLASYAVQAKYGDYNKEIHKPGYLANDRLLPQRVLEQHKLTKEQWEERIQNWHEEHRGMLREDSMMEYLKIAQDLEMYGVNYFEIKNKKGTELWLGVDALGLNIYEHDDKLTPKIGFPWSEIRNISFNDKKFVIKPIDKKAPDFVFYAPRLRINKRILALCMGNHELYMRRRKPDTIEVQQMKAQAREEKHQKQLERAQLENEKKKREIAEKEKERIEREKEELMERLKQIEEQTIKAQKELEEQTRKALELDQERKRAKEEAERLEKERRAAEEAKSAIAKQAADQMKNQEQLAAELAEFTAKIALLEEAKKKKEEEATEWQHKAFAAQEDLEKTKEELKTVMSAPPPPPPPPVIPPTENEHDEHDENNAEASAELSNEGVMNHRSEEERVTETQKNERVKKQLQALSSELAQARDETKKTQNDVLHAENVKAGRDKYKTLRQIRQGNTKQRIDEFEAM

Assay [1] has as its target Nectin-3 (human (endogenous in the paper's human cell lines; line not stated)) (UniProt Q9NQS3). The assay is described as follows: co-IP; cell lysate (cell line not stated) precipitated with anti-Nectin-3 antibody (A, C-19, C-terminus) or (B, K-20, internal region), 1:100, protein A/G agarose overnight; blots probed for the partners; lysis in HCMF buffer with 0.5% SDS, 0.5% Triton X-100, 2 mM CaCl2.

Assay [2] addresses CAR (human (endogenous in the paper's human cell lines; line not stated)) (UniProt P78310). The assay can be described thus: co-IP; cell lysate (cell line not stated) precipitated with antibodies to the partner proteins, protein A/G agarose; blots probed with anti-Nectin-3 (A) (for Ezrin with A and B); lysis in HCMF buffer with 0.5% SDS, 0.5% Triton X-100, 2 mM CaCl2.
Assay [3] addresses Ezrin (human (endogenous in the paper's human cell lines; line not stated)) (UniProt P15311). Described as above.
In assay [4] the target is T1, Occludin (human (endogenous in the paper's human cell lines; line not stated)) (UniProt Q16625).
T1 sequence: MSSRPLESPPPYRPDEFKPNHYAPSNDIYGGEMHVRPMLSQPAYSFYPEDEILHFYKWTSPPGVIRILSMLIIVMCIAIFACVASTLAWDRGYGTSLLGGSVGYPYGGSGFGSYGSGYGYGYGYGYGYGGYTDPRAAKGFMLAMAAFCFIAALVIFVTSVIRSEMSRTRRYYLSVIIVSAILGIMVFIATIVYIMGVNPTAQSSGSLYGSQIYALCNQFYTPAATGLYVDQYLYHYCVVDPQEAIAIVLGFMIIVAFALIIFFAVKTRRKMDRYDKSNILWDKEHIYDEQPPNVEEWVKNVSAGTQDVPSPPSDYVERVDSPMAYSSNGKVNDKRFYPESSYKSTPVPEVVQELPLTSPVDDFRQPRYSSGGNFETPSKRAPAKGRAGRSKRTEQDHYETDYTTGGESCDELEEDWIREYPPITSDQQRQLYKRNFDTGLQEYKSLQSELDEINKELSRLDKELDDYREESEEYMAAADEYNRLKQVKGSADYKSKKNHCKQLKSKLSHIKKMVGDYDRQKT
Described as above.

Assay [5] deals with ROCKI (human (endogenous in the paper's human cell lines; line not stated)) (UniProt Q13464). Described as above.
The target of assay [6] is T2, SIPA-1 (human (endogenous in the paper's human cell lines; line not stated)) (UniProt Q96FS4).
T2 sequence: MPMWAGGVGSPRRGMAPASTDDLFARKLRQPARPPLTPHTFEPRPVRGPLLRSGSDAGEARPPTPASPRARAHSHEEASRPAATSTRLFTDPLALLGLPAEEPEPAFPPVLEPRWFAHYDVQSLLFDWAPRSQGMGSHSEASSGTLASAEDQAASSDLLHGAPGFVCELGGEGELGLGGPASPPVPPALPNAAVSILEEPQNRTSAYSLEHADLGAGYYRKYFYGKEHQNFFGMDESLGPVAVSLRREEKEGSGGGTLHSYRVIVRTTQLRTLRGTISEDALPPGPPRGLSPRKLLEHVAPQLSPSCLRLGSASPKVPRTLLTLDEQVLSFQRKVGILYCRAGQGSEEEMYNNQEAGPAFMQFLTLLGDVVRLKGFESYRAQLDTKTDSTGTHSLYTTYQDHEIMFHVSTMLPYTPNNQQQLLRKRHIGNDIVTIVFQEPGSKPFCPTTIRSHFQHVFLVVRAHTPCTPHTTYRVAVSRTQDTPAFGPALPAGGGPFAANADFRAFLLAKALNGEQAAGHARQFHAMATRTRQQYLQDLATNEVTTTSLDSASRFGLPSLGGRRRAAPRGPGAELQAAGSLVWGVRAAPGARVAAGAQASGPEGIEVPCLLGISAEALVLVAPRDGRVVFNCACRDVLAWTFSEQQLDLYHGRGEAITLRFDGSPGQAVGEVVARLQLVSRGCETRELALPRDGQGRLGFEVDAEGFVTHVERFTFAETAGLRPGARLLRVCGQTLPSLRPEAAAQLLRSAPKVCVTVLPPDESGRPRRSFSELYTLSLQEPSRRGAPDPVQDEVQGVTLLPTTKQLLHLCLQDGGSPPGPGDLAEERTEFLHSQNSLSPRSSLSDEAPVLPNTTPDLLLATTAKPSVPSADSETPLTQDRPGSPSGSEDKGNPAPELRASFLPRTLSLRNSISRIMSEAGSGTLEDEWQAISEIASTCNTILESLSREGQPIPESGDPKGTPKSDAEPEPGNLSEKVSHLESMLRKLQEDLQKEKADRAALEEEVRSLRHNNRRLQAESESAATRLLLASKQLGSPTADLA
The description is as above.

Assay [7] has as its target ZO-1 (human (endogenous in the paper's human cell lines; line not stated)) (UniProt Q07157). The description is as above.
For assay [8], the target named is β-catenin (human (endogenous in the paper's human cell lines; line not stated)) (UniProt P35222). Described as above.

Turning to Ezrin (from UniProt P15311 1-586), the binding result in assay [1] is listed as “binds”.

Consider MAGI-2 (from UniProt Q86UL8 1-1455), for which, in assay [1], the binding entry is given as “binds”. Take Moesin (from UniProt P26038 1-577): the binding result in assay [1] is “binds”. Take Nectin-3 (from UniProt Q9NQS3 58-549): the binding entry in assay [2], in assay [3], in assay [4], in assay [5], in assay [6] and in assay [7] was “binds” throughout. The binding entry in assay [8] is recorded as “binds”. Take Radixin (from UniProt P35241 1-583): in assay [1], the binding entry is “binds”.

Consider ZO-1 (from UniProt Q07157 1-1748), for which the binding result in assay [1] is “binds”. For the substance β-catenin (from UniProt P35222 1-781), the binding result in assay [1] is recorded as “binds”.

Source of the values: paper PMC3873263.
